Measurements published in paper PMC9299836 (eLife, 2022).
The source gives many values for each of these; only a part stands here.

Chains of the proteins cited; added tags and fusions are not shown. Residues count along the entry.
UniProt Q14BI2, 19-872 A548F: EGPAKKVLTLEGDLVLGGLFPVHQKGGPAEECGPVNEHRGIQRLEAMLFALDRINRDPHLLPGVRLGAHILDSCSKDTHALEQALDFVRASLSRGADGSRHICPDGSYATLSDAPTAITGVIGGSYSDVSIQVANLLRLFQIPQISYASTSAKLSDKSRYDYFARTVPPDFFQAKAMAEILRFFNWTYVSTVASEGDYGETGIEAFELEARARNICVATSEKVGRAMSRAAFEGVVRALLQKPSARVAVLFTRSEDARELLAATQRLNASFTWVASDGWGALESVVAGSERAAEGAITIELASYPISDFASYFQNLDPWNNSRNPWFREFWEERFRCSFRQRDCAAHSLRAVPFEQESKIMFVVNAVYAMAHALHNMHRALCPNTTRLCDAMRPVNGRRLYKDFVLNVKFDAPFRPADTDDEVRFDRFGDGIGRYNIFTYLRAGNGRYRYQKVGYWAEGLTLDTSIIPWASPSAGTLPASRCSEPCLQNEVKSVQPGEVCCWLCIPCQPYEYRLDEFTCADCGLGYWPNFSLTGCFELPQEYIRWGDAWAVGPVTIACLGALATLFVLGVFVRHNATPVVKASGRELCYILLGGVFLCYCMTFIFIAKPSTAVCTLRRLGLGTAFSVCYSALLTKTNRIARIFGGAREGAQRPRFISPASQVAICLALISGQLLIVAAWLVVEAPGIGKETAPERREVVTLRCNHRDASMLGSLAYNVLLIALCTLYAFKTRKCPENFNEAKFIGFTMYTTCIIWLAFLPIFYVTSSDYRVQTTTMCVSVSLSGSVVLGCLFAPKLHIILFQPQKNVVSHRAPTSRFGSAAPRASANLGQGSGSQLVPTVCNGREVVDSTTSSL

Biological target: mGluR2 (Mus musculus, UniProt Q14BI2, A548F)
Assay: smFRET of azi-CRD: cross-correlation of donor and acceptor intensities (CRD dynamics) and HMM transition density plots;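 note: single detergent-solubilized receptors captured on antibody-coated flow cells via C-terminal FLAG-tag, imaged by smFRET, donor and acceptor intensity traces from three independent biological replicates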

Substance: MNI-137
- Cross Correlation, Mean (0μM Glutamate + GPT/Pyruvate + 5μM MNI-137, Time 0 s): -0.2459
- Cross Correlation, Mean (0μM Glutamate + GPT/Pyruvate + 5μM MNI-137, Time 0 s, N 3): -0.2459
- Cross Correlation, Mean (0μM Glutamate + GPT/Pyruvate + 5μM MNI-137, Time 0.05 s): -0.07085
- Cross Correlation, Mean (0μM Glutamate + GPT/Pyruvate + 5μM MNI-137, Time 0.05 s, N 3): -0.07085
- Cross Correlation, Mean (0μM Glutamate + GPT/Pyruvate + 5μM MNI-137, Time 0.1 s): -0.0397
- Cross Correlation, Mean (0μM Glutamate + GPT/Pyruvate + 5μM MNI-137, Time 0.1 s, N 3): -0.0397
- Cross Correlation, Mean (0μM Glutamate + GPT/Pyruvate + 5μM MNI-137, Time 0.15 s): -0.03694
- Cross Correlation, Mean (0μM Glutamate + GPT/Pyruvate + 5μM MNI-137, Time 0.15 s, N 3): -0.03694
- Cross Correlation, Mean (0μM Glutamate + GPT/Pyruvate + 5μM MNI-137, Time 0.2 s, N 3): -0.028
- Cross Correlation, Mean (0μM Glutamate + GPT/Pyruvate + 5μM MNI-137, Time 0.25 s, N 3): -0.03232
- Cross Correlation, Mean (0μM Glutamate + GPT/Pyruvate + 5μM MNI-137, Time 0.3 s, N 3): -0.03245
- Cross Correlation, Mean (0μM Glutamate + GPT/Pyruvate + 5μM MNI-137, Time 0.35 s, N 3): -0.03285
- Cross Correlation, Mean (0μM Glutamate + GPT/Pyruvate + 5μM MNI-137, Time 0.4 s, N 3): -0.02992
- Cross Correlation, Mean (0μM Glutamate + GPT/Pyruvate + 5μM MNI-137, Time 0.45 s, N 3): -0.02563
- Cross Correlation, Mean (0μM Glutamate + GPT/Pyruvate + 5μM MNI-137, Time 0.5 s, N 3): -0.0232
- Cross Correlation, Mean (0μM Glutamate + GPT/Pyruvate + 5μM MNI-137, Time 0.55 s, N 3): -0.0254
- Cross Correlation, Mean (0μM Glutamate + GPT/Pyruvate + 5μM MNI-137, Time 0.6 s, N 3): -0.02539
- Cross Correlation, Mean (0μM Glutamate + GPT/Pyruvate + 5μM MNI-137, Time 0.65 s, N 3): -0.02363
- Cross Correlation, Mean (0μM Glutamate + GPT/Pyruvate + 5μM MNI-137, Time 0.7 s, N 3): -0.02361
- Cross Correlation, Mean (0μM Glutamate + GPT/Pyruvate + 5μM MNI-137, Time 0.8 s, N 3): -0.02074
- Cross Correlation, Mean (0μM Glutamate + GPT/Pyruvate + 5μM MNI-137, Time 0.85 s, N 3): -0.0233
- Cross Correlation, Mean (0μM Glutamate + GPT/Pyruvate + 5μM MNI-137, Time 0.9 s, N 3): -0.02522
- Cross Correlation, Mean (0μM Glutamate + GPT/Pyruvate + 5μM MNI-137, Time 0.95 s, N 3): -0.02254
- Cross Correlation, Mean (0μM Glutamate + GPT/Pyruvate + 5μM MNI-137, Time 1 s, N 3): -0.02263
- Cross Correlation, Mean (0μM Glutamate + GPT/Pyruvate + 5μM MNI-137, Time 1.05 s, N 3): -0.01654
- Cross Correlation, Mean (0μM Glutamate + GPT/Pyruvate + 5μM MNI-137, Time 1.1 s, N 3): -0.01694
- Cross Correlation, Mean (0μM Glutamate + GPT/Pyruvate + 5μM MNI-137, Time 1.15 s, N 3): -0.0245
- Cross Correlation, Mean (0μM Glutamate + GPT/Pyruvate + 5μM MNI-137, Time 1.2 s, N 3): -0.02011
- Cross Correlation, Mean (0μM Glutamate + GPT/Pyruvate + 5μM MNI-137, Time 1.25 s, N 3): -0.02479
- Cross Correlation, Mean (0μM Glutamate + GPT/Pyruvate + 5μM MNI-137, Time 1.3 s, N 3): -0.01941
- Cross Correlation, Mean (0μM Glutamate + GPT/Pyruvate + 5μM MNI-137, Time 1.35 s, N 3): -0.01897
- Cross Correlation, Mean (0μM Glutamate + GPT/Pyruvate + 5μM MNI-137, Time 1.4 s, N 3): -0.02381
- Cross Correlation, Mean (0μM Glutamate + GPT/Pyruvate + 5μM MNI-137, Time 1.45 s, N 3): -0.01493
- Cross Correlation, Mean (0μM Glutamate + GPT/Pyruvate + 5μM MNI-137, Time 1.5 s, N 3): -0.01697
- Cross Correlation, Mean (0μM Glutamate + GPT/Pyruvate + 5μM MNI-137, Time 1.6 s, N 3): -0.01709
- Cross Correlation, Mean (0μM Glutamate + GPT/Pyruvate + 5μM MNI-137, Time 1.65 s, N 3): -0.01348
- Cross Correlation, Mean (0μM Glutamate + GPT/Pyruvate + 5μM MNI-137, Time 1.7 s, N 3): -0.01427
- Cross Correlation, Mean (0μM Glutamate + GPT/Pyruvate + 5μM MNI-137, Time 1.75 s, N 3): -0.0161
- Cross Correlation, Mean (0μM Glutamate + GPT/Pyruvate + 5μM MNI-137, Time 1.8 s, N 3): -0.01106
- Cross Correlation, Mean (0μM Glutamate + GPT/Pyruvate + 5μM MNI-137, Time 1.85 s, N 3): -0.00832
- Cross Correlation, Mean (0μM Glutamate + GPT/Pyruvate + 5μM MNI-137, Time 1.9 s, N 3): -0.01466
- Cross Correlation, Mean (0μM Glutamate + GPT/Pyruvate + 5μM MNI-137, Time 1.95 s): -0.01527
- Cross Correlation, Mean (0μM Glutamate + GPT/Pyruvate + 5μM MNI-137, Time 1.95 s, N 3): -0.01527
- Cross Correlation, Mean (0μM Glutamate + GPT/Pyruvate + 5μM MNI-137, Time 2 s): -0.01535
- Cross Correlation, Mean (0μM Glutamate + GPT/Pyruvate + 5μM MNI-137, Time 2 s, N 3): -0.01535
- Cross Correlation, Mean (0μM Glutamate + GPT/Pyruvate + 5μM MNI-137, Time 2.05 s): -0.01353
- Cross Correlation, Mean (0μM Glutamate + GPT/Pyruvate + 5μM MNI-137, Time 2.05 s, N 3): -0.01353
- Cross Correlation, Mean (0μM Glutamate + GPT/Pyruvate + 5μM MNI-137, Time 2.1 s): -0.02329
- Cross Correlation, Mean (0μM Glutamate + GPT/Pyruvate + 5μM MNI-137, Time 2.1 s, N 3): -0.02329
- Cross Correlation, Mean (0μM Glutamate + GPT/Pyruvate + 5μM MNI-137, Time 2.15 s): -0.01414
- Cross Correlation, Mean (0μM Glutamate + GPT/Pyruvate + 5μM MNI-137, Time 2.15 s, N 3): -0.01414
- Cross Correlation, Mean (0μM Glutamate + GPT/Pyruvate + 5μM MNI-137, Time 2.2 s): -0.01305
- Cross Correlation, Mean (0μM Glutamate + GPT/Pyruvate + 5μM MNI-137, Time 2.2 s, N 3): -0.01305
- Cross Correlation, Mean (0μM Glutamate + GPT/Pyruvate + 5μM MNI-137, Time 2.25 s): -0.02083
- Cross Correlation, Mean (0μM Glutamate + GPT/Pyruvate + 5μM MNI-137, Time 2.25 s, N 3): -0.02083
- Cross Correlation, Mean (0μM Glutamate + GPT/Pyruvate + 5μM MNI-137, Time 2.3 s): -0.0234
- Cross Correlation, Mean (0μM Glutamate + GPT/Pyruvate + 5μM MNI-137, Time 2.3 s, N 3): -0.0234
- Cross Correlation, Mean (0μM Glutamate + GPT/Pyruvate + 5μM MNI-137, Time 2.35 s): -0.01415
- Cross Correlation, Mean (0μM Glutamate + GPT/Pyruvate + 5μM MNI-137, Time 2.35 s, N 3): -0.01415
- Cross Correlation, Mean (0μM Glutamate + GPT/Pyruvate + 5μM MNI-137, Time 2.4 s): -0.00877
- Cross Correlation, Mean (0μM Glutamate + GPT/Pyruvate + 5μM MNI-137, Time 2.4 s, N 3): -0.00877
- Cross Correlation, Mean (0μM Glutamate + GPT/Pyruvate + 5μM MNI-137, Time 2.45 s): -0.01529
- Cross Correlation, Mean (0μM Glutamate + GPT/Pyruvate + 5μM MNI-137, Time 2.45 s, N 3): -0.01529
- Cross Correlation, Mean (0μM Glutamate + GPT/Pyruvate + 5μM MNI-137, Time 2.5 s): -0.01293
- Cross Correlation, Mean (0μM Glutamate + GPT/Pyruvate + 5μM MNI-137, Time 2.5 s, N 3): -0.01293
- Cross Correlation, Mean (0μM Glutamate + GPT/Pyruvate + 5μM MNI-137, Time 2.55 s): -0.01664
- Cross Correlation, Mean (0μM Glutamate + GPT/Pyruvate + 5μM MNI-137, Time 2.55 s, N 3): -0.01664
- Cross Correlation, Mean (0μM Glutamate + GPT/Pyruvate + 5μM MNI-137, Time 2.6 s): -0.01359
- Cross Correlation, Mean (0μM Glutamate + GPT/Pyruvate + 5μM MNI-137, Time 2.6 s, N 3): -0.01359
- Cross Correlation, Mean (0μM Glutamate + GPT/Pyruvate + 5μM MNI-137, Time 2.65 s): -0.01834
- Cross Correlation, Mean (0μM Glutamate + GPT/Pyruvate + 5μM MNI-137, Time 2.65 s, N 3): -0.01834
- Cross Correlation, Mean (0μM Glutamate + GPT/Pyruvate + 5μM MNI-137, Time 2.7 s): -0.011
- Cross Correlation, Mean (0μM Glutamate + GPT/Pyruvate + 5μM MNI-137, Time 2.7 s, N 3): -0.011
- Cross Correlation, Mean (0μM Glutamate + GPT/Pyruvate + 5μM MNI-137, Time 2.8 s): -0.0107
- Cross Correlation, Mean (0μM Glutamate + GPT/Pyruvate + 5μM MNI-137, Time 2.8 s, N 3): -0.0107
- Cross Correlation, Mean (0μM Glutamate + GPT/Pyruvate + 5μM MNI-137, Time 2.85 s): -0.0118
- Cross Correlation, Mean (0μM Glutamate + GPT/Pyruvate + 5μM MNI-137, Time 2.85 s, N 3): -0.0118
- Cross Correlation, Mean (0μM Glutamate + GPT/Pyruvate + 5μM MNI-137, Time 2.9 s): -0.0114
- Cross Correlation, Mean (0μM Glutamate + GPT/Pyruvate + 5μM MNI-137, Time 2.9 s, N 3): -0.0114
- Cross Correlation, Mean (0μM Glutamate + GPT/Pyruvate + 5μM MNI-137, Time 2.95 s): -0.01263
- Cross Correlation, Mean (0μM Glutamate + GPT/Pyruvate + 5μM MNI-137, Time 2.95 s, N 3): -0.01263
- Cross Correlation, Mean (15μM Glutamate + 5μM MNI-137, Time 0 s): -0.3705
- Cross Correlation, Mean (15μM Glutamate + 5μM MNI-137, Time 0.05 s): -0.1742
- Cross Correlation, Mean (15μM Glutamate + 5μM MNI-137, Time 0.1 s): -0.13
- Cross Correlation, Mean (15μM Glutamate + 5μM MNI-137, Time 0.15 s): -0.1053
- Cross Correlation, Mean (15μM Glutamate + 5μM MNI-137, Time 2 s): -0.01674
- Cross Correlation, Mean (15μM Glutamate + 5μM MNI-137, Time 2.05 s): -0.01757
- Cross Correlation, Mean (15μM Glutamate + 5μM MNI-137, Time 2.1 s): -0.01085
- Cross Correlation, Mean (15μM Glutamate + 5μM MNI-137, Time 2.15 s): -0.01347
- Cross Correlation, Mean (15μM Glutamate + 5μM MNI-137, Time 2.2 s): -0.01154
- Cross Correlation, Mean (15μM Glutamate + 5μM MNI-137, Time 2.25 s): -0.01291
- Cross Correlation, Mean (15μM Glutamate + 5μM MNI-137, Time 2.3 s): -0.01444
- Cross Correlation, Mean (15μM Glutamate + 5μM MNI-137, Time 2.35 s): -0.01299
